## Melanoma cell counts after drug treatment

Data from the primary screen of doi:10.1371/journal.pone.0140310, rounded.

Compounds and concentrations:
GW2580, 1000 nM: COc1ccc(COc2ccc(Cc3cnc(N)nc3N)cc2OC)cc1
CP-690550, 1000 nM: C[C@@H]1CCN(C(=O)CC#N)C[C@@H]1N(C)c1ncnc2[nH]ccc12
XAV939, 2000 nM: Oc1nc(-c2ccc(C(F)(F)F)cc2)nc2c1CSCC2
everolimus, 20 nM: CO[C@H]1C[C@@H]2CC[C@@H](C)[C@@](O)(O2)C(=O)C(=O)N2CCCC[C@H]2C(=O)O[C@H]([C@H](C)C[C@@H]2CC[C@@H](OCCO)[C@H](OC)C2)CC(=O)[C@H](C)/C=C(\C)[C@@H](O)[C@@H](OC)C(=O)[C@H](C)C[C@H](C)/C=C/C=C/C=C/1C
decitabine, 100 nM: Nc1ncn([C@H]2C[C@H](O)[C@@H](CO)O2)c(=O)n1
PF-04217903, 1000 nM: OCCn1cc(-c2cnc3nnn(Cc4ccc5ncccc5c4)c3n2)cn1
nilotinib, 200 nM: Cc1cn(-c2cc(NC(=O)c3ccc(C)c(Nc4nccc(-c5cccnc5)n4)c3)cc(C(F)(F)F)c2)cn1
YM155, 0.4 nM: COCC[n+]1c2c(n(Cc3cnccn3)c1C)C(=O)c1ccccc1C2=O
GSK0660, 1000 nM: COC(=O)c1sccc1S(=O)(=O)Nc1ccc(Nc2ccccc2)cc1OC
ZM336372, 2000 nM: Cc1ccc(NC(=O)c2cccc(N(C)C)c2)cc1NC(=O)c1ccc(O)cc1
fludarabine, 200 nM: Nc1nc(F)nc2c1ncn2[C@@H]1O[C@H](CO)[C@@H](O)[C@@H]1O

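Human melanoma cell lines in 1,536-well plates were treated with two drugs together for 72 h, then fixed, stained and imaged. Each value is the count of nuclei relative to DMSO-treated wells, in %, so that 100 equals the control. Concentrations were fixed for each drug; these are the lower of two levels, a fifth of the higher. These are primary screening values without error estimates.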
An unselected part of the screen is shown.
A dash means that no value is listed here.

Combination,MEL-HO,IST-MEL1,501mel,COLO 800,A375,A2058,LB2518-MEL,A101D,IPC-298,C32
PF-04217903 + fludarabine,90.7,91.3,-,62.0,10.8,88.6,89.1,89.8,93.9,89.8
YM155 + fludarabine,88.3,86.0,-,96.7,13.3,62.5,100,88.2,77.7,103
GSK0660 + everolimus,67.8,81.6,57.8,65.4,-,68.7,78.5,72.3,71.5,84.1
CP-690550 + GW2580,95.9,102,110,72.8,94.7,105,100,101,101,92.8
everolimus + PF-04217903,87.5,76.2,-,57.2,58.2,85.6,-,70.6,75.8,87.8
GSK0660 + CP-690550,83.3,99.7,102,112,106,98.3,110,103,102,91.5
CP-690550 + XAV939,86.1,104,95.4,92.8,104,72.0,97.8,91.7,95.9,95.3
decitabine + CP-690550,87.4,86.3,-,91.1,101,76.4,77.8,79.6,66.9,97.8
YM155 + GW2580,96.6,93.1,94.5,93.7,116,87.8,90.4,94.9,90.3,100
XAV939 + decitabine,94.4,82.2,77.8,85.5,-,75.0,77.9,91.8,61.4,98.8
XAV939 + fludarabine,96.9,93.6,-,105,-,67.0,-,93.8,82.1,99.4
PF-04217903 + XAV939,84.8,96.0,106,87.8,102,98.2,99.6,94.4,102,119
ZM336372 + GW2580,86.6,95.8,83.8,150,108,102,104,107,82.5,91.2
everolimus + GW2580,81.8,84.6,52.6,44.7,-,77.8,73.4,74.5,80.6,91.0
CP-690550 + fludarabine,96.2,90.3,-,102,13.9,86.4,101,88.2,95.6,102
XAV939 + everolimus,69.8,81.8,56.9,70.4,-,50.9,58.7,71.9,73.5,73.9
CP-690550 + everolimus,77.1,90.6,-,66.6,49.3,61.1,73.6,85.0,74.3,77.6
everolimus + nilotinib,68.1,80.0,-,45.8,47.1,59.7,79.0,75.0,75.1,89.3
fludarabine + ZM336372,93.7,86.9,-,102,9.0,100,80.0,95.1,79.9,103
decitabine + GW2580,79.8,89.5,-,70.2,-,69.3,-,86.5,61.1,98.8
fludarabine + nilotinib,87.0,82.8,-,71.6,21.8,90.2,115,92.2,89.9,95.7
everolimus + YM155,74.5,79.9,-,70.9,62.7,52.3,-,73.0,80.0,76.2
YM155 + decitabine,80.5,69.0,-,78.8,71.6,68.5,79.5,75.8,61.0,102
everolimus + ZM336372,56.6,82.0,-,109,63.3,74.7,-,78.4,59.2,82.9
fludarabine + GSK0660,79.0,95.2,6.0,104,-,105,106,97.3,91.3,94.4
PF-04217903 + decitabine,81.0,84.7,-,83.4,103,70.1,99.6,80.6,69.6,114
PF-04217903 + nilotinib,90.7,102,-,74.7,88.4,98.1,90.3,96.2,100,106
decitabine + ZM336372,73.6,76.7,-,130,98.1,75.0,89.1,86.6,60.4,88.2
GW2580 + fludarabine,96.1,88.6,2.8,98.6,-,90.4,98.4,94.3,91.6,96.8
PF-04217903 + GSK0660,96.6,108,127,73.1,100,112,112,115,96.9,102
YM155 + XAV939,74.2,92.0,107,107,83.4,61.6,80.6,99.2,85.2,107
PF-04217903 + GW2580,97.2,96.3,110,104,102,111,88.6,107,99.6,101
ZM336372 + GSK0660,90.4,90.5,98.0,135,103,92.0,84.1,106,76.1,78.3
ZM336372 + nilotinib,87.1,96.5,-,130,86.7,97.5,97.0,102,88.6,82.5

Repeated from the top, 4 entries:

Combination,MEL-HO,IST-MEL1,501mel,COLO 800,A375,A2058,LB2518-MEL,A101D,IPC-298,C32
PF-04217903 + fludarabine,90.7,91.3,-,62.0,10.8,88.6,89.1,89.8,93.9,89.8
YM155 + fludarabine,88.3,86.0,-,96.7,13.3,62.5,100,88.2,77.7,103
GSK0660 + everolimus,67.8,81.6,57.8,65.4,-,68.7,78.5,72.3,71.5,84.1
CP-690550 + GW2580,95.9,102,110,72.8,94.7,105,100,101,101,92.8